Results deposited as PubChem BioAssay AID1224830 (NIAID, 2016).
Shown is an unselected part of about 18,000 reagents tested. In the full data, about 2,900 (16%) were called active. 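Calls are made per well; low scores hint the gene aids the LPS response, high scores that it dampens it.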 Unmarked entries are inactive. Repeated entries: four replicate wells of each siRNA pool.

Assay: 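Regulators of TLR4 signalling towards TNF-alpha in macrophage-like cells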 (primary screen)
Cells: human THP-1 monocytic leukaemia cells, TNF dual-luciferase reporter clone, PMA-differentiated to macrophage-like cells
Reagents: siRNA pool against human genes, 50 nM
Time to read-out: LPS for 4 h, given about 3 days after siRNA transfection
Conditions: bacterial LPS (TLR4 ligand), 10 ng/ml
Measured: 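Ratio of firefly to renilla light, scaled to the plate median and expressed as a robust z-score per replicate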
Direction: TNF reporter robust z-score: higher = stronger TNF reporter response to LPS
Call rule: 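a well is active when its z-score exceeds 2.8 or falls below -1.5; control wells carry no call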

| gene | TNF reporter robust z-score |
| --- | --- |
| PRDM10 | 1.55 |
| PRDM10 | 0.2 |
| PRDM10 | 0.13 |
| PRDM10 | 0.47 |
| TENM2 | 0.7 |
| TENM2 | 2.12 |
| TENM2 | 0 |
| TENM2 | 2.64 |
| PIK3C3 | 0.62 |
| PIK3C3 | 1.66 |
| PIK3C3 | -0.18 |
| PIK3C3 | 0.51 |
| ABCA10 | 0.88 |
| ABCA10 | -0.33 |
| ABCA10 | -0.76 |
| ABCA10 | 0.69 |
| ADAT1 | 0.65 |
| ADAT1 | 0.71 |
| ADAT1 | 0.76 |
| ADAT1 | 2.16 |
| BUD23 | -0.57 |
| BUD23 | 0.09 |
| BUD23 | 0.57 |
| BUD23 | 1.16 |
| FASN | -0.5 |
| FASN | -0.1 |
| FASN | 0.12 |
| FASN | -0.23 |
| TRIM21 | 0.1 |
| TRIM21 | -0.28 |
| TRIM21 | 0.48 |
| TRIM21 | -0.05 |
| PPP1R1B | 1.64 |
| PPP1R1B | 2.43 |
| PPP1R1B | 0.18 |
| PPP1R1B | 1.2 |
| TMEM39A | 0.4 |
| TMEM39A | 0.17 |
| TMEM39A | -0.25 |
| TMEM39A | 0.96 |
| PNMT | -1.36 |
| PNMT | -0.04 |
| PNMT | 0.63 |
| PNMT | 0.8 |
| NUDT5 | -0.61 |
| NUDT5 | -0.15 |
| NUDT5 | -0.09 |
| NUDT5 | 1.35 |
| OR8D4 | -1.01 |
| OR8D4 | -0.34 |
| OR8D4 | -1.38 |
| OR8D4 | -0.96 |

Reformatted: results already given.
TRIM21 | TNF reporter robust z-score = 0.48
TRIM21 | TNF reporter robust z-score = -0.05
PPP1R1B | TNF reporter robust z-score = 1.64
PPP1R1B | TNF reporter robust z-score = 2.43
PPP1R1B | TNF reporter robust z-score = 0.18
PPP1R1B | TNF reporter robust z-score = 1.2
TMEM39A | TNF reporter robust z-score = 0.4
TMEM39A | TNF reporter robust z-score = 0.17
TMEM39A | TNF reporter robust z-score = -0.25
TMEM39A | TNF reporter robust z-score = 0.96
PNMT | TNF reporter robust z-score = -1.36
PNMT | TNF reporter robust z-score = -0.04

Continued.
| gene | TNF reporter robust z-score |
| --- | --- |
| LDB1 | -0.6 |
| LDB1 | 0.36 |
| LDB1 | -0.33 |
| LDB1 | 0.61 |
| NOL4L | 0.11 |
| NOL4L | -0.44 |
| NOL4L | -0.36 |
| NOL4L | 0.05 |
| HECW1 | -1.55 (active) |
| HECW1 | 0.52 |
| HECW1 | -1.05 |
| HECW1 | -0.44 |
| SESN3 | -1.46 |
| SESN3 | -1.1 |
| SESN3 | -0.83 |
| SESN3 | -1.27 |
| DNM2 | 0.96 |
| DNM2 | 0.47 |
| DNM2 | 0.52 |
| DNM2 | 0.31 |
| RHCG | -0.6 |
| RHCG | 0.34 |
| RHCG | 0.37 |
| RHCG | 0.77 |
| FBXO41 | 0.35 |
| FBXO41 | 6.15 (active) |
| FBXO41 | 0.73 |
| FBXO41 | 4.47 (active) |
| TTC13 | 0.16 |
| TTC13 | 1.93 |
| TTC13 | -0.61 |
| TTC13 | -0.5 |
| H2AC1 | -0.63 |
| H2AC1 | -0.39 |
| H2AC1 | -0.77 |
| H2AC1 | 0.15 |
| SDHAF1 | -0.62 |
| SDHAF1 | -0.64 |
| SDHAF1 | -0.55 |
| SDHAF1 | -0.11 |
| PRR27 | 0.48 |
| PRR27 | -0.12 |
| PRR27 | 0.13 |
| ZFP69 | -1.2 |
| ZFP69 | -0.01 |
| ZFP69 | -1.34 |
| ZFP69 | 0.09 |
| NAA30 | 0.52 |
| NAA30 | 0.14 |
| NAA30 | 0.23 |
| NAA30 | -0.56 |
| MCM5 | -0.6 |
| MCM5 | -0.53 |
| MCM5 | -0.47 |
| MCM5 | 0.48 |
| TRIM67 | -1.21 |
| TRIM67 | -0.2 |
| TRIM67 | -1.54 (active) |
| TRIM67 | -0.09 |
